According to PubChem BioAssay AID504405 (Broad Institute, 2011):
Inconclusive means that the source gave no clear call. Such entries were picked first, then a sample of the others. Calls of active or inactive are those of the source.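 How the source made its calls: active means fitted curve crosses 10% of positive-control caspase signal within tested doses in every repeat test; inconclusive means repeat tests disagree, or any test inconclusive; inactive means the rest.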

Test: caspase activation in parental wild-type MEFs, dose response, counter-screen for A1 inhibitor project, cell-based, wild-type MEF, CaspaseGlo luminescence, dry powder, set 3 (AID 504405)
Conditions: 3 h; at 35 µM (top of the series) unless noted
Summary of the method: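 System: Unprimed wild-type MEF cells | Medium: RPMI-1640 plus 10% FBS | Times: 3 h compound at 37 °C, 1 h CaspaseGlo at RT | Technique: CaspaseGlo luminescence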

**Q.** Which caspase activation does the source give for COc1ccc(N2CCN(c3nc(NCCc4ccc(OC)c(OC)c4)nc(N4CCOCC4)n3)CC2)cc1 here?
**A.** inactive: 0.165%

**Q.** Which caspase activation does the source give for Cn1c(=O)c([N+](=O)[O-])c(Sc2ccccn2)c2ccccc21 here?
**A.** inconclusive: -0.285%

**Q.** With CC1(C)CCC(c2ccc(Cl)cc2)=C(CN2CCN(c3ccc(C(=O)NS(=O)(=O)c4ccc(N[C@H](CCN5CCOCC5)CSc5ccccc5)c(S(=O)(=O)C(F)(F)F)c4)cc3)CC2)C1 as the compound, how does the caspase activation read?
**A.** inconclusive: 9.52% [at 16 µM]

**Q.** Which caspase activation does the source give for Cc1ccc(Sc2c([N+](=O)[O-])c(=O)n(Cc3ccccc3)c3ccccc23)cc1 here?
**A.** inconclusive: 17.7%

**Q.** For O=c1[nH]c2ccccc2c(O)c1[N+](=O)[O-], which caspase activation is on record?
**A.** inactive: 0.522%

**Q.** For COCCn1c(=O)c([N+](=O)[O-])c(Sc2ccc(C)cc2)c2ccccc21, which caspase activation is on record?
**A.** inconclusive: 9.8%

**Q.** For CCn1c(=O)c([N+](=O)[O-])c(Cl)c2ccccc21, which caspase activation is on record?
**A.** inconclusive: 0.994%

**Q.** For COc1ccc(CCNc2nc(N3CCCC3)nc(N3CCCC3)n2)cc1OC, which caspase activation is on record?
**A.** inactive: -0.327%

**Q.** For Cn1c(=O)c([N+](=O)[O-])c(Cl)c2ccccc21, which caspase activation is on record?
**A.** inconclusive: -1.1%

**Q.** Which caspase activation does the source give for Cn1c(=O)c([N+](=O)[O-])c(S(C)(=O)=O)c2ccccc21 here?
**A.** inactive: -0.856%

**Q.** For O=c1[nH]c2ccccc2c(Cl)c1[N+](=O)[O-], which caspase activation is on record?
**A.** inconclusive: -0.161%
